From patent US20230322957A1
Changes are numbered by the printed parent chain. These are yes or no findings as the source states them, for the method shown. Some entries that bind do so weakly or less than the wild type.

Chains of the proteins cited; added tags and fusions are not shown.
UniProt Q02223: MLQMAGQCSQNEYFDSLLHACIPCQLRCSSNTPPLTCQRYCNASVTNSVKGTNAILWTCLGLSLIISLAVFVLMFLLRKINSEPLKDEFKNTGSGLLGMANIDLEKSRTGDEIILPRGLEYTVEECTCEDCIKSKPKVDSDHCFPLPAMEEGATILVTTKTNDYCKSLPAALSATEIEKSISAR

B1: Mab 34 (antibody, V domains shown)
VH: EVQLLESGGGLVQPGGSLRLSCAASGFTFYTNAMGWVRQAPGKGLEWVSAINRFGGSTYYADSVKGRFTISRDNSKNTLYLQMNSLRAEDTAVYYCAKVLGWFDYWGQGTLVTVSS
VL: EIVLTQSPGTLSLSPGERATLSCRASQSVSSYYLAWYQQKPGQAPRLLISGAGSRATGIPDRFSGSGSGTDFTLTISRLEPEDFAVYYCQQYGYPPDFTFGQGTKVEIK
B2: Mab 44 (antibody, V domains shown)
VH: EVQLLESGGGLVQPGGSLRLSCAASGFTFSSAPMGWVRQAPGKGLEWVSAISYIGHTYYADSVKGRFTISRDNSKNTLYLQMNSLRAEDTAVYYCAKVLGWFDYWGQGTLVTVSS
VL: B1 VL with S31D, Y32E, A35S, S50H, G51S, G53S, S54T, T75A
B3: Mab 28 (antibody, V domains shown)
VH: B2 VH
VL: B1 VL
B4: Mab 14 (antibody, V domains shown)
VH: B1 VH
VL: B1 VL with S31D, Y32E, A35S, S50H, G51S, G53S, S54T, T75A

Biological target: human BCMA on the cell surface (human) (UniProt Q02223)
Test: flow cytometry on HEK-huBCMA cells, PE-labelled anti-human Fc secondary antibody, median fluorescence intensity

binding, binds:
B1, B2, B3, B4
